Source: publication PMC12670160, “A drug-repurposing screen of FDA- and EMA-approved drugs identifies two NF-κB inhibitors active against eumycetoma” (Journal of Antimicrobial Chemotherapy, 2025)
The campaign covered roughly 5,300 compounds. About 130 (2.5%) showed an effect of 50% or more. Some of the results follow.

Test system: M. mycetomatis strain mm55
Details: primary screen, metabolic activity vs growth control; 96 h, 2 µM; inhibitor

Structure (SMILES) | % viability
O=C(O)CNC(=O)c1ccccc1I [ONC0003784, 2iodohippuricacid] | 136.6%
Cc1cc(-n2c(=O)[nH]c(=O)n(C)c2=O)ccc1Oc1ccc(SC(F)(F)F)cc1 [ONC0004051, toltrazuril] | 117.7%
O=[N+]([O-])c1cnc(Sc2nnc(O)n2-c2ccc3c(c2)OCCO3)s1 [ONC0000158, bi78d3] | 83.73%
C=CC1=C(C(=O)O)N2C(=O)[C@@H](NC(=O)/C(=N\OCC(=O)O)c3csc(N)n3)[C@H]2SC1 [ONC0005545, cefixime] | 131.1%
CN1C(=O)CCS(=O)(=O)C1c1ccc(Cl)cc1 (stereo not drawn) [ONC0003875, chlormezanone] | 63.41%
CCS(=O)(=O)N(Cc1cccnc1)c1cccc(-c2ccc(C#N)cc2)c1 [ONC0001620, cbipes] | 66.8%
C[C@]12CCC(=O)C[C@@H]1CC[C@@H]1[C@@H]2CC[C@]2(C)C=CC[C@@H]12 [ONC0002090, 5androstenone] | 72.4%
OCCOCCN1CCN(C(c2ccccc2)c2ccc(Cl)cc2)CC1 (stereo not drawn) [ONC0000576, hydroxyzine pamoate] | 125.6%
C[C@@H]1CC2C3CCC4=CC(=O)C=C[C@]4(C)[C@@]3(F)[C@@H](O)C[C@]2(C)[C@H]1C(=O)CO (stereo partly drawn) [ONC0004115, desoxymetasone] | 133.2%
Cc1cc(CCCOc2c(C)cc(-c3noc(C(F)(F)F)n3)cc2C)on1 [ONC0004271, pleconaril] | 89.31%
COc1ccc(CNC(=O)Nc2ncc([N+](=O)[O-])s2)cc1 [ONC0000879, ara014418] | 83.72%
O=C(NS(=O)(=O)c1ccc(Br)s1)c1ccc(Cl)cc1Cl [ONC0005127, tasisulam ly573636] | 83.11%
OC[C@H]1O[C@@](CO)(O[C@H]2O[C@H](CO)[C@@H](O)[C@H](O)[C@H]2O)[C@@H](O)[C@@H]1O [ONC0005578, sucrose] | 90.89%
O=S(=O)(O)CCCS(=O)(=O)O [ONC0005304, eprodisate disodium] | 61.63%
O=C1N[C@@H]2[C@@H](O)[C@@H](O)[C@H](O)[C@@H](CO)N2C1=O [ONC0003241, kifunensine] | 83.58%
COC(=O)C1=C(C)N(C)C(C)=C(C(=O)OC)C1c1ccc(C(F)(F)F)cc1 [ONC0002913, bayw9798] | 53.61%
NC(=S)N/N=C/c1ncccc1N [ONC0001159, triapine] | 70.16%
CCCCCCCCCCCCCCCCCCCCCCCCC(=O)O [ONC0002800] | 89.28%

2 successive records from above:
Structure (SMILES) | % viability
O=C(O)CNC(=O)c1ccccc1I [ONC0003784, 2iodohippuricacid] | 136.6%
Cc1cc(-n2c(=O)[nH]c(=O)n(C)c2=O)ccc1Oc1ccc(SC(F)(F)F)cc1 [ONC0004051, toltrazuril] | 117.7%
